Experimental data taken from article PMC12520514.
Results are given in words; binding and its absence hold for the method and conditions named. In cells and extracts the contact can be indirect.

By UniProt entry, the sequences of proteins in these tests, tags left out.
UniProt Q8IY92: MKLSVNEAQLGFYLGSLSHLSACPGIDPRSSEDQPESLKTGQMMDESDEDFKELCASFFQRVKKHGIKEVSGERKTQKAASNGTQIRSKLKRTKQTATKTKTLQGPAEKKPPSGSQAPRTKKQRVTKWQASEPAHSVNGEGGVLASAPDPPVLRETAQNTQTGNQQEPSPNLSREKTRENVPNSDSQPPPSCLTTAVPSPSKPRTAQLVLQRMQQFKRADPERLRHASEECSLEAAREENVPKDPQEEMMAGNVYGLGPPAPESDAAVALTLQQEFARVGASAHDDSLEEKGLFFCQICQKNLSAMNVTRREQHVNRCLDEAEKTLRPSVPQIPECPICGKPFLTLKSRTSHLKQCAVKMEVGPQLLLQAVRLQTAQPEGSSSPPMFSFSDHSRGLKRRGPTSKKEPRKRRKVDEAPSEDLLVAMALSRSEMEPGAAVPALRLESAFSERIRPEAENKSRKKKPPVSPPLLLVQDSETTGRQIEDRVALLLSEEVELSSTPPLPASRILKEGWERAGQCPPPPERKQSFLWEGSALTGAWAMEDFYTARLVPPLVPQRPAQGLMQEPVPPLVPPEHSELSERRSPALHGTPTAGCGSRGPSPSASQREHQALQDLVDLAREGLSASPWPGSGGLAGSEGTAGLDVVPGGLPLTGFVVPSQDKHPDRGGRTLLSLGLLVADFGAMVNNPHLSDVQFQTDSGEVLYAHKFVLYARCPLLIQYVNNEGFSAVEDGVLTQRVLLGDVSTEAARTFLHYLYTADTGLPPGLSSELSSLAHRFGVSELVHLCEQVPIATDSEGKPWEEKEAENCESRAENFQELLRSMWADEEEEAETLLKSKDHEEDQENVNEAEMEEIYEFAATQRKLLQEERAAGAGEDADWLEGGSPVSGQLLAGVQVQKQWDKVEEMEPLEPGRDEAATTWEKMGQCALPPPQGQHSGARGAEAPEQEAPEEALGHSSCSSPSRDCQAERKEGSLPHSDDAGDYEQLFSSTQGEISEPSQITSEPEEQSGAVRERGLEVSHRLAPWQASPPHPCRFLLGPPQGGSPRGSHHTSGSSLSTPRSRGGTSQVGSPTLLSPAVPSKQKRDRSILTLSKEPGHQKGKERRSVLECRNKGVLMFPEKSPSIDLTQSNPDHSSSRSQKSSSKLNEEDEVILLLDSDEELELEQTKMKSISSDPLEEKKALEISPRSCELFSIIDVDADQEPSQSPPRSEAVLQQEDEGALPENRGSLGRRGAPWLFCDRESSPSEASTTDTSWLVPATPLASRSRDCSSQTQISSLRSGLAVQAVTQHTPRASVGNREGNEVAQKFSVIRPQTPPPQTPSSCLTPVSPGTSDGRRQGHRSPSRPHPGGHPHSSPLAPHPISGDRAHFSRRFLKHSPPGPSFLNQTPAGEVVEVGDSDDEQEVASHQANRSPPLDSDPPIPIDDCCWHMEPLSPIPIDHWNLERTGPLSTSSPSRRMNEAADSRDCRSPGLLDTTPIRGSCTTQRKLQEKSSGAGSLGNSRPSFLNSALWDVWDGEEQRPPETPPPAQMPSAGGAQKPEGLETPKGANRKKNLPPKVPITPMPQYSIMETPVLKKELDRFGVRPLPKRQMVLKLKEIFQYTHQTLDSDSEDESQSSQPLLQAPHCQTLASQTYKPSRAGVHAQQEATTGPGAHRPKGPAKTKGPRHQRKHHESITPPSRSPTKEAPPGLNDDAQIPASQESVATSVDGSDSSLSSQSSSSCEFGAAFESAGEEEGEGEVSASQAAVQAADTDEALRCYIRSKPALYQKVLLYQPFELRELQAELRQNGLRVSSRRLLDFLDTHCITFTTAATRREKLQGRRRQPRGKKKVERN

Target: T1, Importin-13 (UniProt O94829)
T1 sequence: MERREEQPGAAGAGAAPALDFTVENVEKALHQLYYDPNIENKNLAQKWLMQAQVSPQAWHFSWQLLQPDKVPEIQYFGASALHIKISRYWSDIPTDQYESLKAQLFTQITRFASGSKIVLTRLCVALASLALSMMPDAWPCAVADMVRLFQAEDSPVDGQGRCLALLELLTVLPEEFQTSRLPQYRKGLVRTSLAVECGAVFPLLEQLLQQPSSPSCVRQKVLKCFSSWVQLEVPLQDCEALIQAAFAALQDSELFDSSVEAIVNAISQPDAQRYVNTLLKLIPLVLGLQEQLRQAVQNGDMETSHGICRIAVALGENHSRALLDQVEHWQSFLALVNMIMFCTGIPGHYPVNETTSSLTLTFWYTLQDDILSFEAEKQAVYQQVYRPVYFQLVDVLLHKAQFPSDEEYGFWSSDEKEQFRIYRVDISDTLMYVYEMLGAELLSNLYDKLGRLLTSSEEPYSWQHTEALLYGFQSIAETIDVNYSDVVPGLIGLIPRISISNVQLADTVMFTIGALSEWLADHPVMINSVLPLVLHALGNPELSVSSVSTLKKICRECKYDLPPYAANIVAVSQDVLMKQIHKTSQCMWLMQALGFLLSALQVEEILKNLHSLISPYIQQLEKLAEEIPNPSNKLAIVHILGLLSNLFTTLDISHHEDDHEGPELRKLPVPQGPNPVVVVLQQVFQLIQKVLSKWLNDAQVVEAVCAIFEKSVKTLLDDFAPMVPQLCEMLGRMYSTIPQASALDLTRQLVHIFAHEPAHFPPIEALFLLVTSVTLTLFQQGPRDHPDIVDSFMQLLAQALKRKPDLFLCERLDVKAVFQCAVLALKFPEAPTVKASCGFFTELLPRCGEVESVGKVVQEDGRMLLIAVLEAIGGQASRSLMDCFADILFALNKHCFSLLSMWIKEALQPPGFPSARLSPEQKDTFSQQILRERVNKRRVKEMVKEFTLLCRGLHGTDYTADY
Assay: co-IP; immunoprecipitation assay of SLX4 and IPO13 (Figure S7G); cells, bait and conditions not told in the main text

binding: no binding
Substance: SLX4 (from UniProt Q8IY92 1-1834)
